# From the supplement of paper PMC8728848
# This is one part of the list.
# B1: LysMD3 (Homo sapiens), Q7Z3D4 (protein)
# chain: MAGRHQNRSFPLPGVQSSGQVHAFGNCSDSDILEEDAEVYELRSRGKEKVRRSTSRDRLDDIIVLTKDIQEGDTLNAIALQYCCTVADIKRVNNLISDQDFFALRSIKIPVKKFSSLTETLCPPKGRQTSRHSSVQYSSEQQEILPANDSLAYSDSAGSFLKEVDRDIEQIVKCTDNKRENLNEVVSALTAQQMRFEPDNKNTQRKDPYYGADWGIG
# Tests used:
# Assay in all cases: glycan array binding signal (z-score within array); higher = stronger binding
# Details in all cases: glycan notation: IUPAC condensed, linker removed
# [1] = molecular target: Neu5Ac(a2-3)Gal
# How it was run: (§1)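 From the Consortium for Functional Glycomics database, 3228 arrays were curated, keeping only those whose protein sequence was available. Binding is given as a within-array Z-score averaged across arrays sharing a protein sequence and across linkers. Negative Z-scores can be read as non-binding.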
# [2] = molecular target: Neu5Ac(a2-3)Gal(b1-3)GalNAc
# How it was run: as §1
# [3] = molecular target: Neu5Ac(a2-3)Gal(b1-3)GalNAc(b1-3)Gal(a1-4)Gal(b1-4)Glc
# How it was run: as §1
# [4] = molecular target: Neu5Ac(a2-3)Gal(b1-3)GalNAc(b1-4)Gal(b1-4)Glc
# How it was run: as §1
# [5] = molecular target: Neu5Ac(a2-3)Gal(b1-3)GalNAc(b1-4)[Neu5Ac(a2-3)]Gal(b1-4)Glc
# How it was run: as §1
# [6] = molecular target: Neu5Ac(a2-3)Gal(b1-3)GalNAc(b1-4)[Neu5Ac(a2-8)Neu5Ac(a2-3)]Gal(b1-4)Glc
# How it was run: as §1
# [7] = molecular target: Neu5Ac(a2-3)Gal(b1-3)GalNAc6S
# How it was run: as §1
# [8] = molecular target: Neu5Ac(a2-3)Gal(b1-3)GlcNAc
# How it was run: as §1
# [9] = molecular target: Neu5Ac(a2-3)Gal(b1-3)GlcNAc(b1-2)Man
# How it was run: as §1
# [10] = molecular target: Neu5Ac(a2-3)Gal(b1-3)GlcNAc(b1-2)Man(a1-3)[GlcNAc(b1-4)][Neu5Ac(a2-3)Gal(b1-3)GlcNAc(b1-2)Man(a1-6)]Man(b1-4)GlcNAc(b1-4)GlcNAc
# How it was run: as §1
# [11] = molecular target: Neu5Ac(a2-3)Gal(b1-3)GlcNAc(b1-2)Man(a1-3)[Neu5Ac(a2-3)Gal(b1-3)GlcNAc(b1-2)Man(a1-6)]Man(b1-4)GlcNAc(b1-4)GlcNAc
# How it was run: as §1
# [12] = molecular target: Neu5Ac(a2-3)Gal(b1-3)GlcNAc(b1-2)[Neu5Ac(a2-3)Gal(b1-3)GlcNAc(b1-4)]Man(a1-6)[Neu5Ac(a2-3)Gal(b1-3)GlcNAc(b1-2)Man(a1-3)]Man(b1-4)GlcNAc(b1-4)GlcNAc
# How it was run: as §1
# [13] = molecular target: Neu5Ac(a2-3)Gal(b1-3)GlcNAc(b1-3)Gal(b1-3)GlcNAc
# How it was run: as §1
# [14] = molecular target: Neu5Ac(a2-3)Gal(b1-3)GlcNAc(b1-3)Gal(b1-4)GlcNAc
# How it was run: as §1
# [15] = molecular target: Neu5Ac(a2-3)Gal(b1-3)GlcNAc(b1-3)GalNAc
# How it was run: as §1
# [16] = molecular target: Neu5Ac(a2-3)Gal(b1-3)GlcNAc(b1-6)GalNAc
# How it was run: as §1
# [17] = molecular target: Neu5Ac(a2-3)Gal(b1-3)GlcNAc6S
# How it was run: as §1
# [18] = molecular target: Neu5Ac(a2-3)Gal(b1-3)[Fuc(a1-4)]GlcNAc
# How it was run: as §1
# [19] = molecular target: Neu5Ac(a2-3)Gal(b1-3)[Fuc(a1-4)]GlcNAc(b1-3)Gal(b1-3)[Fuc(a1-4)]GlcNAc
# How it was run: as §1
# [20] = molecular target: Neu5Ac(a2-3)Gal(b1-3)[Fuc(a1-4)]GlcNAc(b1-3)Gal(b1-4)[Fuc(a1-3)]GlcNAc
# How it was run: as §1
# [21] = molecular target: Neu5Ac(a2-3)Gal(b1-3)[GlcNAc(b1-6)]GalNAc
# How it was run: as §1
# [22] = molecular target: Neu5Ac(a2-3)Gal(b1-3)[Neu5Ac(a2-6)]GalNAc
# How it was run: as §1
# [23] = molecular target: Neu5Ac(a2-3)Gal(b1-3)[Neu5Ac(a2-6)]GlcNAc(b1-3)[Fuc(a1-3)[Gal(b1-4)]GlcNAc(b1-6)]Gal(b1-4)Glc
# How it was run: as §1
# [24] = molecular target: Neu5Ac(a2-3)Gal(b1-3)]Neu5Ac(a2-3)Gal(b1-4)]GlcNAc
# How it was run: as §1
# [25] = molecular target: Neu5Ac(a2-3)Gal(b1-4)Glc
# How it was run: as §1
# [26] = molecular target: Neu5Ac(a2-3)Gal(b1-4)GlcNAc
# How it was run: as §1
# [27] = molecular target: Neu5Ac(a2-3)Gal(b1-4)GlcNAc(b1-2)Man
# How it was run: as §1
# [28] = molecular target: Neu5Ac(a2-3)Gal(b1-4)GlcNAc(b1-2)Man(a1-3)[GlcNAc(b1-4)][Neu5Ac(a2-3)Gal(b1-4)GlcNAc(b1-2)Man(a1-6)]Man(b1-4)GlcNAc(b1-4)GlcNAc
# How it was run: as §1
# [29] = molecular target: Neu5Ac(a2-3)Gal(b1-4)GlcNAc(b1-2)Man(a1-3)[Neu5Ac(a2-3)Gal(b1-4)GlcNAc(b1-2)Man(a1-6)]Man(b1-4)GlcNAc(b1-4)GlcNAc
# How it was run: as §1
# [30] = molecular target: Neu5Ac(a2-3)Gal(b1-4)GlcNAc(b1-2)Man(a1-3)[Neu5Ac(a2-3)Gal(b1-4)GlcNAc(b1-2)Man(a1-6)]Man(b1-4)GlcNAc(b1-4)[Fuc(a1-6)]GlcNAc
# How it was run: as §1
# [31] = molecular target: Neu5Ac(a2-3)Gal(b1-4)GlcNAc(b1-2)Man(a1-3)[Neu5Ac(a2-6)Gal(b1-4)GlcNAc(b1-2)Man(a1-6)]Man(b1-4)GlcNAc(b1-4)GlcNAc
# How it was run: as §1
# [32] = molecular target: Neu5Ac(a2-3)Gal(b1-4)GlcNAc(b1-2)[Neu5Ac(a2-3)Gal(b1-4)GlcNAc(b1-4)]Man(a1-3)[GlcNAc(b1-4)][Neu5Ac(a2-3)Gal(b1-4)GlcNAc(b1-2)[Neu5Ac(a2-3)Gal(b1-4)GlcNAc(b1-6)]Man(a1-6)]Man(b1-4)GlcNAc(b1-4)GlcNAc
# How it was run: as §1
# [33] = molecular target: Neu5Ac(a2-3)Gal(b1-4)GlcNAc(b1-2)[Neu5Ac(a2-3)Gal(b1-4)GlcNAc(b1-4)]Man(a1-3)[GlcNAc(b1-4)][Neu5Ac(a2-3)Gal(b1-4)GlcNAc(b1-4)Man(a1-6)]Man(b1-4)GlcNAc(b1-4)GlcNAc
# How it was run: as §1
# [34] = molecular target: Neu5Ac(a2-3)Gal(b1-4)GlcNAc(b1-2)[Neu5Ac(a2-3)Gal(b1-4)GlcNAc(b1-6)]Man(a1-6)[Neu5Ac(a2-3)Gal(b1-4)GlcNAc(b1-2)Man(a1-3)][GlcNAc(b1-4)]Man(b1-4)GlcNAc(b1-4)GlcNAc
# How it was run: as §1
# [35] = molecular target: Neu5Ac(a2-3)Gal(b1-4)GlcNAc(b1-3)Gal
# How it was run: as §1
# [36] = molecular target: Neu5Ac(a2-3)Gal(b1-4)GlcNAc(b1-3)Gal(b1-3)GlcNAc
# How it was run: as §1
# [37] = molecular target: Neu5Ac(a2-3)Gal(b1-4)GlcNAc(b1-3)Gal(b1-4)GlcNAc
# How it was run: as §1
# [38] = molecular target: Neu5Ac(a2-3)Gal(b1-4)GlcNAc(b1-3)Gal(b1-4)GlcNAc(b1-2)Man(a1-3)[Neu5Ac(a2-3)Gal(b1-4)GlcNAc(b1-3)Gal(b1-4)GlcNAc(b1-2)Man(a1-6)]Man(b1-4)GlcNAc(b1-4)GlcNAc
# How it was run: as §1
# [39] = molecular target: Neu5Ac(a2-3)Gal(b1-4)GlcNAc(b1-3)Gal(b1-4)GlcNAc(b1-3)Gal(b1-4)GlcNAc
# How it was run: as §1
# [40] = molecular target: Neu5Ac(a2-3)Gal(b1-4)GlcNAc(b1-3)Gal(b1-4)GlcNAc(b1-3)Gal(b1-4)GlcNAc(b1-2)Man(a1-3)[Neu5Ac(a2-3)Gal(b1-4)GlcNAc(b1-3)Gal(b1-4)GlcNAc(b1-3)Gal(b1-4)GlcNAc(b1-2)Man(a1-6)]GalNAc
# How it was run: as §1
# [41] = molecular target: Neu5Ac(a2-3)Gal(b1-4)GlcNAc(b1-3)Gal(b1-4)GlcNAc(b1-3)GalNAc
# How it was run: as §1
# [42] = molecular target: Neu5Ac(a2-3)Gal(b1-4)GlcNAc(b1-3)Gal(b1-4)GlcNAc(b1-3)[Neu5Ac(a2-3)Gal(b1-4)GlcNAc(b1-3)Gal(b1-4)GlcNAc(b1-6)]GalNAc
# How it was run: as §1
# [43] = molecular target: Neu5Ac(a2-3)Gal(b1-4)GlcNAc(b1-3)Gal(b1-4)GlcNAc(b1-6)[Gal(b1-3)]GalNAc
# How it was run: as §1
# [44] = molecular target: Neu5Ac(a2-3)Gal(b1-4)GlcNAc(b1-3)Gal(b1-4)[Fuc(a1-3)]GlcNAc
# How it was run: as §1
# [45] = molecular target: Neu5Ac(a2-3)Gal(b1-4)GlcNAc(b1-3)GalNAc
# How it was run: as §1
binder,measurement,setting,value
B1,glycan array binding signal (z-score),[1],-0.312
same,glycan array binding signal (z-score),[2],-0.71
same,glycan array binding signal (z-score),[3],-0.258
same,glycan array binding signal (z-score),[4],0.227
same,glycan array binding signal (z-score),[5],-0.402
same,glycan array binding signal (z-score),[6],-0.528
same,glycan array binding signal (z-score),[7],-0.837
same,glycan array binding signal (z-score),[8],-0.413
same,glycan array binding signal (z-score),[9],-0.023
same,glycan array binding signal (z-score),[10],-0.304
same,glycan array binding signal (z-score),[11],-0.729
same,glycan array binding signal (z-score),[12],-0.094
same,glycan array binding signal (z-score),[13],-0.197
same,glycan array binding signal (z-score),[14],1.11
same,glycan array binding signal (z-score),[15],-0.758
same,glycan array binding signal (z-score),[16],-0.701
same,glycan array binding signal (z-score),[17],-0.562
same,glycan array binding signal (z-score),[18],-0.689
same,glycan array binding signal (z-score),[19],-0.51
same,glycan array binding signal (z-score),[20],0.346
same,glycan array binding signal (z-score),[21],-0.933
same,glycan array binding signal (z-score),[22],0.106
same,glycan array binding signal (z-score),[23],-0.473
same,glycan array binding signal (z-score),[24],0.837
same,glycan array binding signal (z-score),[25],-0.644
same,glycan array binding signal (z-score),[26],-0.259
same,glycan array binding signal (z-score),[27],-0.604
same,glycan array binding signal (z-score),[28],-0.07
same,glycan array binding signal (z-score),[29],0.459
same,glycan array binding signal (z-score),[30],-0.475
same,glycan array binding signal (z-score),[31],0.582
same,glycan array binding signal (z-score),[32],-0.117
same,glycan array binding signal (z-score),[33],-1.33
same,glycan array binding signal (z-score),[34],0.359
same,glycan array binding signal (z-score),[35],-0.198
same,glycan array binding signal (z-score),[36],-0.589
same,glycan array binding signal (z-score),[37],0.515
same,glycan array binding signal (z-score),[38],-0.994
same,glycan array binding signal (z-score),[39],0.245
same,glycan array binding signal (z-score),[40],-0.65
same,glycan array binding signal (z-score),[41],-0.97
same,glycan array binding signal (z-score),[42],-0.222
same,glycan array binding signal (z-score),[43],-0.924
same,glycan array binding signal (z-score),[44],-0.062
same,glycan array binding signal (z-score),[45],-1.16

# 2 entries from above, tab-delimited:
binder	measurement	setting	value
B1	glycan array binding signal (z-score)	[6]	-0.528
same	glycan array binding signal (z-score)	[11]	-0.729
